Further values from the same series stand in other lists.
Tests used:
Type in all cases: cell-based
Conditions in all cases: U-87MG ATCC
[1] = Inhibition of RTK/PI3K/AKT/mTOR signaling in human U87 cells assessed as down regulation of RNF6 gene expression at cytotoxic IC50 measured after 48 hrs relative to control
[2] = Inhibition of RTK/PI3K/AKT/mTOR signaling in human U87 cells assessed as down regulation of ATAD2 gene expression at cytotoxic IC50 measured after 48 hrs relative to control
[3] = Inhibition of RTK/PI3K/AKT/mTOR signaling in human U87 cells assessed as up regulation of DLX4 gene expression at cytotoxic IC50 measured after 48 hrs relative to control
[4] = Inhibition of RTK/PI3K/AKT/mTOR signaling in human U87 cells assessed as up regulation of FRAT2, WNT signaling pathway regulator gene expression at cytotoxic IC50 measured after 48 hrs relative to control
[5] = Inhibition of RTK/PI3K/AKT/mTOR signaling in human U87 cells assessed as up regulation of ArfGAP with GTPase domain, ankyrin repeat and PH domain 1 gene expression at cytotoxic IC50 measured after 48 hrs relative to control
[6] = Inhibition of RTK/PI3K/AKT/mTOR signaling in human U87 cells assessed as up regulation of solute carrier family 25 member 37 gene expression at cytotoxic IC50 measured after 48 hrs relative to control
[7] = Inhibition of RTK/PI3K/AKT/mTOR signaling in human U87 cells assessed as down regulation of ARAP2 gene expression at cytotoxic IC50 measured after 48 hrs relative to control
[8] = Inhibition of RTK/PI3K/AKT/mTOR signaling in human U87 cells assessed as up regulation of stomatin gene expression at cytotoxic IC50 measured after 48 hrs relative to control
[9] = Inhibition of RTK/PI3K/AKT/mTOR signaling in human U87 cells assessed as down regulation of MORC4 gene expression at cytotoxic IC50 measured after 48 hrs relative to control
[10] = Inhibition of RTK/PI3K/AKT/mTOR signaling in human U87 cells assessed as down regulation of MAP1A gene expression at cytotoxic IC50 measured after 48 hrs relative to control
[11] = Inhibition of RTK/PI3K/AKT/mTOR signaling in human U87 cells assessed as down regulation of CEP295 gene expression at cytotoxic IC50 measured after 48 hrs relative to control
[12] = Inhibition of RTK/PI3K/AKT/mTOR signaling in human U87 cells assessed as up regulation of mitochondrial ribosomal protein S18B gene expression at cytotoxic IC50 measured after 48 hrs relative to control
[13] = Inhibition of RTK/PI3K/AKT/mTOR signaling in human U87 cells assessed as down regulation of SLC30A1 gene expression at cytotoxic IC50 measured after 48 hrs relative to control
[14] = Inhibition of RTK/PI3K/AKT/mTOR signaling in human U87 cells assessed as down regulation of FGFRL1 gene expression at cytotoxic IC50 measured after 48 hrs relative to control
[15] = Inhibition of RTK/PI3K/AKT/mTOR signaling in human U87 cells assessed as down regulation of DHRS2 gene expression at cytotoxic IC50 measured after 48 hrs relative to control
[16] = Inhibition of RTK/PI3K/AKT/mTOR signaling in human U87 cells assessed as up regulation of spen family transcriptional repressor gene expression at cytotoxic IC50 measured after 48 hrs relative to control
[17] = Inhibition of RTK/PI3K/AKT/mTOR signaling in human U87 cells assessed as down regulation of ZWILCH gene expression at cytotoxic IC50 measured after 48 hrs relative to control
[18] = Inhibition of RTK/PI3K/AKT/mTOR signaling in human U87 cells assessed as up regulation of solute carrier family 39 member 10 gene expression at cytotoxic IC50 measured after 48 hrs relative to control
[19] = Inhibition of RTK/PI3K/AKT/mTOR signaling in human U87 cells assessed as down regulation of PPP1R15B gene expression at cytotoxic IC50 measured after 48 hrs relative to control
[20] = Inhibition of RTK/PI3K/AKT/mTOR signaling in human U87 cells assessed as down regulation of SLC25A28 gene expression at cytotoxic IC50 measured after 48 hrs relative to control
[21] = Inhibition of RTK/PI3K/AKT/mTOR signaling in human U87 cells assessed as up regulation of spectrin repeat containing nuclear envelope protein 1 gene expression at cytotoxic IC50 measured after 48 hrs relative to control
[22] = Inhibition of RTK/PI3K/AKT/mTOR signaling in human U87 cells assessed as down regulation of ATG16L1 gene expression at cytotoxic IC50 measured after 48 hrs relative to control
[23] = Inhibition of RTK/PI3K/AKT/mTOR signaling in human U87 cells assessed as up regulation of protein phosphatase 3 catalytic subunit beta gene expression at cytotoxic IC50 measured after 48 hrs relative to control
[24] = Inhibition of RTK/PI3K/AKT/mTOR signaling in human U87 cells assessed as down regulation of CCNE2 gene expression at cytotoxic IC50 measured after 48 hrs relative to control
[25] = Inhibition of RTK/PI3K/AKT/mTOR signaling in human U87 cells assessed as down regulation of WAC gene expression at cytotoxic IC50 measured after 48 hrs relative to control
[26] = Inhibition of RTK/PI3K/AKT/mTOR signaling in human U87 cells assessed as up regulation of hexosaminidase D gene expression at cytotoxic IC50 measured after 48 hrs relative to control
[27] = Inhibition of RTK/PI3K/AKT/mTOR signaling in human U87 cells assessed as down regulation of RALBP1 gene expression at cytotoxic IC50 measured after 48 hrs relative to control
[28] = Inhibition of RTK/PI3K/AKT/mTOR signaling in human U87 cells assessed as up regulation of ST6 N-acetylgalactosaminide alpha-2,6-sialyltransferase 4 gene expression at cytotoxic IC50 measured after 48 hrs relative to control
[29] = Inhibition of RTK/PI3K/AKT/mTOR signaling in human U87 cells assessed as up regulation of GPI gene expression at cytotoxic IC50 measured after 48 hrs relative to control
[30] = Inhibition of RTK/PI3K/AKT/mTOR signaling in human U87 cells assessed as down regulation of WDR37 gene expression at cytotoxic IC50 measured after 48 hrs relative to control
[31] = Inhibition of RTK/PI3K/AKT/mTOR signaling in human U87 cells assessed as up regulation of antizyme inhibitor 2 gene expression at cytotoxic IC50 measured after 48 hrs relative to control
[32] = Inhibition of RTK/PI3K/AKT/mTOR signaling in human U87 cells assessed as down regulation of PPP1R12A gene expression at cytotoxic IC50 measured after 48 hrs relative to control

In the case of `CC(=O)C(=NNc1ccccc1C#N)C(C)=O`, the log2FC [1] is reported as -0.714, the log2FC [2] is reported as -1.29 and the log2FC [3] is reported as 1.85. For the same compound, the log2FC [4] was 1.34, the log2FC [5] was 0.657 and the log2FC [6] was 1.37. For the same compound, the log2FC [7] was -1.08, the log2FC [8] was 0.857 and the log2FC [9] was -0.926. For the same compound, the log2FC [10] was -2, the log2FC [11] was -0.821 and the log2FC [12] was 0.699. For the same compound, the log2FC [13] was -0.523, the log2FC [14] was -0.51 and the log2FC [15] was -2.17. It also gave a log2FC [16] of 0.811, a log2FC [17] of -0.984 and a log2FC [18] of 1.5. It also gave a log2FC [19] of -0.483, a log2FC [20] of -0.886 and a log2FC [21] of 1.09. For the same compound, the log2FC [22] was -0.763, the log2FC [23] was 0.887 and the log2FC [24] was -2.61. The log2FC [25] was -0.377, the log2FC [26] was 1.48 and the log2FC [27] was -0.415. The log2FC [28] was 1.18, the log2FC [29] was 2.52 and the log2FC [30] was -1.2. It also gave a log2FC [31] of 1.4 and a log2FC [32] of -0.648.

— ChEMBL document CHEMBL4316593 (Eur J Med Chem, 2019)
